Assay results: patent US8507527B2, “Method for stabilizing anti-dementia drug” (EISAI R & D Management Co., Ltd., priority 2004, dated 2013)

Columns and labels:
[1] = pH of aqueous solutions or suspensions of additives, polymers and donepezil hydrochloride; assay type: physicochemical
physchem = settings: 25 °C

COc1cc2c(cc1OC)C(=O)C(CC1CCN(Cc3ccccc3)CC1)C2.Cl (racemic) [donepezil hydrochloride, (±)-2-[(1-benzylpiperidin-4-yl)methyl]-5,6-dimethoxyindan-1-one monohydrochloride]
pH ([1]; 2% aqueous solution): 5.0 | pH ([1]; 5% aqueous solution): 4.8 | solubility (physchem; pH 3, aqueous buffer): 11 to 16 mg/mL | solubility (physchem; pH 6, aqueous buffer): 11 to 16 mg/mL | solubility (physchem; pH 8, aqueous buffer): ≤ 0.1 mg/mL | solubility (physchem; simulated gastric fluid): 11 to 16 mg/mL
